PubChem BioAssay AID686943 – Drosophila RNAi Screening Center | 2013
In all, the deposit lists about 23,000 reagents; shown is an unselected part of those that have a named target and a result. 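Extra replicates exist only for a retested subset of genes; insulin dose and duration not given; both raised and lowered dpERK matter.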 Reagents against one gene are numbered here. A plus sign joins genes that one reagent is predicted to hit. Not stated in the record: the amount of reagent, the time to read-out.

Aim: 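Knockdowns that increase or decrease active ERK after insulin receptor stimulation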 (primary screen)
Cells: Drosophila S2R+ haemocyte-like cells expressing YFP-tagged ERK (Rolled)
Knock-down reagent: long dsRNA against Drosophila genes
Treatment: insulin stimulation versus unstimulated cells; dose and duration not given
Read-out: 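Per-plate z-scores of phospho-ERK immunostaining normalised to YFP-tagged ERK, measured with and without insulin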
Reading the numbers: replicate 1, z-score of dpERK with insulin and replicate 2, z-score of dpERK with insulin: higher = more active ERK per ERK-YFP after insulin; replicate 1, z-score of dpERK under basal conditions: higher = more basal active ERK per ERK-YFP; replicate 1, z-score of ERK-YFP with insulin: higher = more YFP-tagged ERK signal

| gene knocked down | dsRNA no. | replicate 1, z-score of dpERK with insulin | replicate 2, z-score of dpERK with insulin | replicate 1, z-score of dpERK under basal conditions | replicate 1, z-score of ERK-YFP with insulin |
| --- | --- | --- | --- | --- | --- |
| CG14605 (GeneID 40867) | 1 | 0.89 | -0.46 | -0.09 | -0.52 |
| ECSIT (GeneID 40732) | 1 | -0.22 | -0.46 | 0.03 | 0.2 |
| r + CG13012 | 1 | -0.35 | -0.31 | -0.24 | 0.56 |
| Gnpnat (GeneID 43504) | 1 | -0.02 | 0.9 | 0.23 | 1.18 |
| CG12898 (GeneID 36096) | 1 | 0 | -0.09 | -0.68 | 0.32 |
| mAChR-C (GeneID 31626) | 1 | -0.17 | 0.22 | -0.33 | 0.47 |
| sno (GeneID 32273) | 1 | -0.06 | -0.73 | -0.5 | 1.29 |
| Vps50 (GeneID 37021) | 1 | -0.2 | 0.18 | 0.21 | 0.18 |
| Set1 (GeneID 3354971) | 1 | -0.58 | -1.92 | -0.24 | -0.72 |
| Set1 (GeneID 3354971) | 2 | -1.32 | -1.39 | -0.71 | -0.31 |
| CG4911 (GeneID 39043) | 1 | 0.29 | 1.66 | -0.22 | -0.1 |
| CG32280 (GeneID 317952) | 1 | 0.04 | 0.3 | 1.55 | 0.18 |
| ko (GeneID 40330) | 1 | 0.41 | 0.46 | 0.28 | 0.19 |
| CG13471 (GeneID 39604) | 1 | 0.56 | -0.4 | -1.03 | -0.41 |
| Panx (GeneID 37434) | 1 | 1.52 | 0.66 | 0.65 | -0.74 |
| CG33640 (GeneID 3772680) | 1 | -0.3 | 0.19 | -0.2 | 0.4 |
| Spn47C (GeneID 36163) | 1 | 0.49 | 0.21 | -0.48 | 0.31 |
| FRG1 (GeneID 40228) | 1 | 0.1 | 0.33 | 0.18 | -0.21 |
| CG7766 (GeneID 31839) | 1 | -0.14 | -0.64 | -0.02 | 0.06 |
| mtsh (GeneID 34141) | 1 | 1.06 | 0.22 | -0.96 | -0.09 |
| rogdi (GeneID 39917) | 1 | 0.6 | 0.32 | -0.18 | -1.74 |

Continued (5 carried over from the part before).
| gene knocked down | dsRNA no. | replicate 1, z-score of dpERK with insulin | replicate 2, z-score of dpERK with insulin | replicate 1, z-score of dpERK under basal conditions | replicate 1, z-score of ERK-YFP with insulin |
| --- | --- | --- | --- | --- | --- |
| Spn47C (GeneID 36163) | 1 | 0.49 | 0.21 | -0.48 | 0.31 |
| FRG1 (GeneID 40228) | 1 | 0.1 | 0.33 | 0.18 | -0.21 |
| CG7766 (GeneID 31839) | 1 | -0.14 | -0.64 | -0.02 | 0.06 |
| mtsh (GeneID 34141) | 1 | 1.06 | 0.22 | -0.96 | -0.09 |
| rogdi (GeneID 39917) | 1 | 0.6 | 0.32 | -0.18 | -1.74 |
| CG43234 (retired record) (GeneID 12798025) | 1 | -0.48 | 0.45 | 0.76 | 0.75 |
| Pus10 (GeneID 33178) | 1 | 0.6 | -0.25 | -0.24 | -0.42 |
| Mtp (GeneID 35362) | 1 | -0.46 | 0.17 | 1.9 | 0.22 |
| CG30062 (GeneID 246428) | 1 | -0.46 | 0.09 | -0.19 | -0.75 |
| CG10898 (GeneID 41384) | 1 | 0 | -0.03 | -0.21 | -0.26 |
| LIMK1 (GeneID 32207) | 1 | 0.18 | 0.59 | 0.75 | 0.92 |
| hng1 (GeneID 37412) | 1 | 0.34 | 1 | 0.28 | 1.38 |
| Usp16-45 (GeneID 31458) | 1 | -0.14 | -0.01 | 0.21 | -0.09 |
| exex (GeneID 38884) | 1 | 0.68 | 0.97 | 0.36 | -0.05 |
| CR40450 + CG32767 | 1 | -0.93 | -1.25 | -0.7 | -1.95 |
| CG15083 (GeneID 37175) | 1 | -0.08 | 0.15 | -1.2 | 0.39 |
| JhI-26 (GeneID 36819) | 1 | 0.23 | -0.26 | -0.49 | 0.1 |
| BNIP3 (GeneID 40278) | 1 | -0.14 | 0.93 | 0.48 | -0.01 |
| CG13344 (GeneID 36541) | 1 | 0.58 | 0.67 | 0.79 | 0.11 |
| Ciz1 (GeneID 39161) | 1 | 3.66 | 6.67 | 4.36 | -8.33 |
| CG6236 (GeneID 41857) | 1 | 0.12 | -0.04 | -0.86 | 0.74 |
| CG14151 (GeneID 39201) | 1 | -2.15 | -0.5 | 1.35 | 0.94 |
| CG43673 + CG43672 | 1 | -0.16 | -0.27 | 0.88 | 0.26 |
| CG43673 + CG43672 | 2 | 0.2 | 0.07 | -0.34 | -0.49 |
